In patent publication US20150272992A1, “Treatment of Tumors with Activated Mesenchymal Stem Cells” (THE TEXAS A&M UNIVERSITY SYSTEM, priority 2012, published 2015):
For at least one compound, name, drawing or mass did not settle the structure.

System: MDA cells
Experiment: Co-culture of hMSCs and MDA cells (Annexin V/7AAD apoptosis, live cell counting)
Assay type: cell-based, human
Conditions: inhibition of OPG in hMSCs; 24 hr co-culture
Method: hMSCs were plated at 10^5 cells in CCM in 6-well plates and incubated for 4 hrs. For pre-activation, hMSCs were incubated at 37° C. for 24 hrs in 2% CM containing 10 ng/mL TNF-α. For co-culture, an equal number of MDA cells in 2% CM with or without TNF-α (10 ng/mL) were added to hMSC containing wells. For transwell cultures, hMSCs were plated at 10^5 cells in the upper compartment (Transwell, 0.4 μm pore size; Corning; Corning, N.Y.), while an equal number of MDA cells was plated in the lower compartment in 2% CM with or without TNF-α (10 ng/mL). After 24 hrs, supernatants and cells were collected. For some experiments, MDA cells were treated with 1 to 100 ng/mL doxorubicin (Sigma-Aldrich) in 2% CM for 24 his at 37° C., prior to co-culture with hMSCs. In other experiments, hMSCs were treated with either apoptotic MDA cells or 1 μg/mL Polyinosinic-Polycytidylic acid [Poly(I:C); Sigma-Aldrich; St. Louis, Mo.] with or without TNF-α (10 ng/ml) for 24 hrs in 2% CM.
hMSCs and MDA cells from co-culture experiments were suspended in PBS and incubated with CD90-PE (Clone Thy1/310; Beckman Coulter) for 45 minutes on ice, washed with PBS by centrifugation, incubated at RT for 20 minutes with 300 ng/mL annexin V (AnnexinV-FITC Apoptosis Detection Kit; Sigma-Aldrich) and 4 μg/mL 7-aminoactinomycin D (7AAD; Sigma-Aldrich.), and analyzed by flow cytometry (Cytomics FC500; Beckman Coulter). […]

Cc1c(C)c2c(c(C)c1O)CCC(C)(COc1ccc(CC3SC(=O)NC3=O)cc1)O2 (stereo not shown) [troglitazone]
apoptosis of MDA cells in co-culture with activated hMSCs plus agent: increased the apoptosis compared to control
